Most values lie at the floor of the assay. Slopes are relative: functional sequences can read slightly below zero.

The series has as its system Saccharomyces cerevisiae PS128 hsf1 delta, HSF1(1-493) fusion. Put plainly: growth estimate (transactivation domain function in HSF1 fusion, heat-shock survival) (a.u. (slope of normalised read count over time)); higher = stronger growth at 37°C, i.e. more transactivation activity. To be noted: library: random library.
For IFSVE, the growth estimate was less than -0.25.

Consider QWRGKPKGAKRDACAQSYGH, for which the growth estimate was less than -0.25.

In the case of TGQDALGGSPPYFRHLARRV, the growth estimate is less than -0.25.

As for AGISRHGITYTRAPIRHCKD, the growth estimate was less than -0.25.

In the case of GKRLP, the growth estimate is less than -0.25.

Take LDGRLSHFIS: the growth estimate was less than -0.25.

On to ETGFASTIAAGLEGGGLGES, for which the growth estimate is less than -0.25.

Take AWFFKPRVVVTKGGPRPEHA: the growth estimate was less than -0.25.

Consider TAG, for which the growth estimate is less than -0.25.

ILLINKTNRRTFDGLQ: the growth estimate was less than -0.25.

Regarding RGA, the growth estimate is less than -0.25.

In the case of FGQSLVMW, the growth estimate is less than -0.25.

With TIANDRCECT, the growth estimate was less than -0.25.

As for SISLGSDFDKYSLRGLLSLF, the growth estimate was less than -0.25.

ECA: the growth estimate is less than -0.25.

In the case of TQLGRASWNLTYRYCTWTDL, the growth estimate was less than -0.25.

Consider PIPNNESAANID, for which the growth estimate was less than -0.25.

Consider TLYGLQCDPRTRERLINLLH, for which the growth estimate is -0.197.

Regarding KGEGCGYQEYQNRSR, the growth estimate is less than -0.25.

As to ALGGNSVYNVRCGWNAPALS, the growth estimate is less than -0.25.

On to TLQCSYGG, for which the growth estimate was less than -0.25.

In the case of RYGGL, the growth estimate was less than -0.25.

Regarding ITDVGY, the growth estimate is less than -0.25.

Turning to SGPLGLESALHDYNALLVSA, the growth estimate is less than -0.25.

As for FLPPGWVNLPHGGNLGAHFP, the growth estimate is less than -0.25.

As for LLSMVVYGKCGRAFGAKVTQ, the growth estimate is less than -0.25.

Consider EAHCRPGFWYLTSGGKLSL, for which the growth estimate is less than -0.25.

Turning to TIDIKS, the growth estimate was less than -0.25.

With CRPGRPRPSETKIGSPRFLW, the growth estimate was less than -0.25.

For the substance VRWVNTGLKDREKGGSGVGA, the growth estimate is less than -0.25.

In the case of GWRDASHPPSLSLKTYIRSE, the growth estimate was less than -0.25.

On to LGINVWDS, for which the growth estimate is less than -0.25.

RTNEITEIC: the growth estimate is less than -0.25.

In the case of GDILDLDLIGGGTRLVLGA, the growth estimate is less than -0.25.

Turning to HCYEVQKEAEWGKSAKGRYC, the growth estimate is less than -0.25.

WRLTVGACVWDPSASR: the growth estimate was less than -0.25.

Consider NRRVVLRVA, for which the growth estimate was less than -0.25.

For QPSTIDHLAIVLRIFLASHS, the growth estimate is less than -0.25.

Turning to GDAPSRGGQLRAYRTIIIRG, the growth estimate is less than -0.25.

With SGFLTCWERYLI, the growth estimate was less than -0.25.

On to ISSNVKGLRRGSVTGARGIP, for which the growth estimate was less than -0.25.

Regarding TSNWIWHPRSWIELRPC, the growth estimate is less than -0.25.

Regarding FRRSVGGTVVE, the growth estimate was less than -0.25.

In the case of GGILMKTSHDQQFNSSAGPH, the growth estimate is less than -0.25.

For the substance GSTFNREWFEIFWRNNLVVG, the growth estimate is less than -0.25.

For SEPLKDRYGDGRASGTEIHG, the growth estimate is less than -0.25.

For the substance YLVLSCRCSIRT, the growth estimate was less than -0.25.

For RDPASAGVSKYD, the growth estimate was less than -0.25.

In the case of EARCTPRRKTVGGVRP, the growth estimate was less than -0.25.

As to VLWASGDLNSVGCPHNTRER, the growth estimate is less than -0.25.

Regarding IAGVMVKQSRGFRRRLYR, the growth estimate is less than -0.25.

As to SPLAFVGSQRA, the growth estimate was less than -0.25.

With LGSKGRTTRMKCHPPRTITE, the growth estimate was less than -0.25.

As to LHVKKRQCFSILSPRPGIGT, the growth estimate was less than -0.25.

Regarding YETFGKPKCGYGGSPSDRKG, the growth estimate is less than -0.25.

Take DYPPNDSTIVWGRKSHRLIL: the growth estimate was less than -0.25.

On to THGWNLPRLRPYWLVSRIKR, for which the growth estimate is less than -0.25.

As to LENPDHSFQDVCFKVRALSR, the growth estimate is less than -0.25.

As for TVALFWYWSRVHVSGGLSAP, the growth estimate was less than -0.25.

As for GRKKGFRKPGTTVCRTDEVS, the growth estimate was less than -0.25.

Consider LMLRRVGHSFAKST, for which the growth estimate is less than -0.25.

As for LVSVRRSTRFALMKEVSPVG, the growth estimate was less than -0.25.

Regarding VFNIVT, the growth estimate is -0.229.

For the substance HIEAGKEVVHNFVNGGEGSG, the growth estimate was less than -0.25.

As to GGGACTSRTSSKHSSRLSHR, the growth estimate was less than -0.25.

Take GRGCLTIAAGNQAWRCHSHR: the growth estimate is less than -0.25.

With AAGSC, the growth estimate is less than -0.25.

Take MYIRQDRAAS: the growth estimate is less than -0.25.

Turning to LRVPVHATYRQDTIDQGPLP, the growth estimate is less than -0.25.

For TSWKSSQARRNGRLVMKRAA, the growth estimate was less than -0.25.

Consider VKPLKMKARGRYRRRCLVWG, for which the growth estimate was less than -0.25.

Turning to KGR, the growth estimate is less than -0.25.

Consider VVMKRVGKRDDGTSLYEWCG, for which the growth estimate was less than -0.25.

As to LTSS, the growth estimate is less than -0.25.

For the substance REAENSQDDPCG, the growth estimate was -0.25.

Take SQSLCLVGWPGNYVRSVAPT: the growth estimate was less than -0.25.

Take HVLASGK: the growth estimate was less than -0.25.

Take TYHDSLLRGGREERVYRGGC: the growth estimate is less than -0.25.

On to TLVLINRSSGPGVKEK, for which the growth estimate was 0.263.

As for SRDHGRTARYPLMEE, the growth estimate is less than -0.25.

Turning to RPTICDDKYKKKP, the growth estimate is less than -0.25.

On to TPVRKRWEYVYCEVIILVLR, for which the growth estimate is less than -0.25.

In the case of RGAFGPGYAMVRSKDCRLQR, the growth estimate was less than -0.25.

CSKNAIHSAAVDVKIHL: the growth estimate was less than -0.25.

As for VSIVEPTRRAGKFQLHS, the growth estimate is less than -0.25.

As for HPSSDRCEGNLRYGDARGVA, the growth estimate was less than -0.25.

For DPTRRCG, the growth estimate was 0.0329.

Turning to FMLGSHL, the growth estimate is less than -0.25.

For the substance GVPCETEMVLIVTCLDLLKA, the growth estimate was less than -0.25.

With WLSEDAEQRASQRLAWLKFD, the growth estimate was less than -0.25.

LSSIVNGLVPTQVSGYG: the growth estimate is less than -0.25.

GNSAVQASNRSAAQSSGTAL: the growth estimate is less than -0.25.

Turning to THQILTYDS, the growth estimate is less than -0.25.

Turning to RCRFLSDPEVTGMTAIVRTK, the growth estimate was less than -0.25.

With RPNPRN, the growth estimate was less than -0.25.

As to VGLFQLTPVAIRPRVWRRIP, the growth estimate was less than -0.25.

Regarding TVSFRLSPSEIE, the growth estimate was less than -0.25.

For YSE, the growth estimate was less than -0.25.

Turning to LASNLVHWSK, the growth estimate was less than -0.25.

Consider STIIDRAYAM, for which the growth estimate was less than -0.25.

With HTPIGVSLGNTGLRQTQPYD, the growth estimate is less than -0.25.

WVGPKAEKCHHS: the growth estimate is less than -0.25.

As for FARDFP, the growth estimate was -0.246.

SGARHPVGNLFSRAKGQ: the growth estimate was less than -0.25.

On to SCLLCLLFVGIQVYVELVRS, for which the growth estimate was less than -0.25.

For the substance DLFVNGSE, the growth estimate is less than -0.25.

As for ATVYIADHSQDSDSFDPVAS, the growth estimate was less than -0.25.

In the case of LELKLTLGGRVDSLLSKFRS, the growth estimate is less than -0.25.

As to IIIRNTVTGAFAGKNEGLRI, the growth estimate was less than -0.25.

For HQRRPGSTWFSDPITYPGLS, the growth estimate is less than -0.25.

Turning to FDESILRLNS, the growth estimate is -0.209.

Take TGRHSYSSFGVNMARCGCPD: the growth estimate is less than -0.25.

In the case of NTRTKPVYFCRTPTLKSLMA, the growth estimate is -0.25.

The values are drawn from the supplement of paper PMC5949888.
